According to the supplement of paper PMC6078165:

System: MDAMB468
Experiment: relative JC-1 red fluorescence (viability) vs pre-drug, coculture with fibroblast (fraction); higher = more viable cancer cells
Procedure: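 JC-1 labelled TNBC cells cocultured 1:1 (1,500 cells each) with CellTrace Violet stained primary or stromal fibroblasts in 384-well plates in FluoroBrite medium, treated with one of 42 anticancer drugs at 0.1, 1, 10 or 100 uM. JC-1 red fluorescence (mitochondrial integrity in cancer cells only) was read by plate reader every 8 h for 72 h. Values are normalised to each well's pre-drug value. The stock of one drug was tenfold lower, so its dose labels may be too high.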

COc1cc([C@@H]2c3cc4c(cc3[C@@H](O[C@@H]3O[C@@H]5CO[C@@H](c6cccs6)O[C@H]5[C@H](O)[C@H]3O)[C@H]3COC(=O)[C@H]23)OCO4)cc(OC)c1O [Teniposide]
relative JC-1 red fluorescence
Conditions | 8 h | 16 h | 24 h | 32 h | 40 h | 48 h | 56 h | 64 h | 72 h
10 µM, coculture fibroblast: C12385 | 0.868 | 0.847 | 0.816 | 0.742 | 0.703 | 0.685 | 0.643 | 0.629 | 0.606
10 µM, coculture fibroblast: H6013 | 0.864 | 0.85 | 0.809 | 0.771 | 0.739 | 0.728 | 0.689 | 0.674 | 0.598
10 µM, coculture fibroblast: H6019 | 0.841 | 0.81 | 0.767 | 0.713 | 0.678 | 0.681 | 0.65 | 0.642 | 0.647
10 µM, coculture fibroblast: H6076 | 0.9066 | 0.915 | 0.8359 | 0.827 | 0.727 | 0.714 | 0.667 | 0.655 | 0.703
10 µM, coculture fibroblast: H6231 | 0.8352 | 0.958 | 0.87 | 0.827 | 0.724 | 0.691 | 0.628 | 0.587 | 0.581
10 µM, coculture fibroblast: HADF | 0.878 | 0.886 | 0.836 | 0.809 | 0.782 | 0.778 | 0.731 | 0.721 | 0.645
10 µM, coculture fibroblast: HCFa | 0.859 | 0.836 | 0.771 | 0.727 | 0.684 | 0.687 | 0.625 | 0.602 | 0.554
10 µM, coculture fibroblast: HCPF | 0.8768 | 0.957 | 0.8963 | 0.907 | 0.809 | 0.783 | 0.712 | 0.694 | 0.674
10 µM, coculture fibroblast: HHSteC | 0.902 | 0.892 | 0.851 | 0.82 | 0.797 | 0.814 | 0.747 | 0.716 | 0.653
10 µM, coculture fibroblast: HMF | 0.841 | 0.936 | 0.827 | 0.79 | 0.687 | 0.656 | 0.589 | 0.55 | 0.536
10 µM, coculture fibroblast: HPFa | 0.9215 | 0.8982 | 0.86 | 0.786 | 0.758 | 0.768 | 0.691 | 0.672 | 0.593
10 µM, coculture fibroblast: HUF | 0.892 | 0.841 | 0.778 | 0.701 | 0.65 | 0.632 | 0.587 | 0.584 | 0.567
10 µM, coculture fibroblast: Hs5 | 0.986 | 0.9376 | 0.9085 | 0.8896 | 0.806 | 0.777 | 0.763 | 0.7246 | 0.7467
10 µM, coculture fibroblast: Hs27A | 0.867 | 0.875 | 0.808 | 0.807 | 0.785 | 0.797 | 0.77 | 0.757 | 0.69
10 µM, coculture fibroblast: Hs343T | 0.8935 | 0.97 | 0.89034 | 0.85414 | 0.736 | 0.688 | 0.611 | 0.577 | 0.56
10 µM, coculture fibroblast: WS1 | 0.8718 | 0.842 | 0.772 | 0.713 | 0.684 | 0.638 | 0.612 | 0.568 | 0.555
100 µM, coculture fibroblast: C12385 | 0.934 | 0.951 | 0.953 | 0.919 | 0.895 | 0.908 | 0.863 | 0.842 | 0.835
100 µM, coculture fibroblast: H6013 | 0.94 | 0.925 | 0.901 | 0.828 | 0.818 | 0.848 | 0.754 | 0.915 | 0.89
100 µM, coculture fibroblast: H6019 | 0.875 | 0.8546 | 0.832 | 0.845 | 0.887 | 0.916 | 0.906 | 0.914 | 0.929
100 µM, coculture fibroblast: H6076 | 0.984 | 0.8313 | 0.791 | 0.891 | 0.915 | 0.858 | 0.808 | 0.903 | 0.911
100 µM, coculture fibroblast: H6231 | 0.876 | 0.936 | 0.9527 | 0.95664 | 0.909 | 0.9248 | 0.89 | 0.87 | 0.8871
100 µM, coculture fibroblast: HADF | 0.885 | 0.773 | 0.783 | 0.816 | 0.808 | 0.833 | 0.78 | 0.725 | 0.866
100 µM, coculture fibroblast: HCFa | 0.9525 | 0.979 | 0.9736 | 0.828 | 0.80336 | 0.756 | 0.757 | 0.85 | 0.717
100 µM, coculture fibroblast: HCPF | 0.962 | 0.839 | 0.79 | 0.796 | 0.899 | 0.844 | 0.782 | 0.822 | 0.887
100 µM, coculture fibroblast: HHSteC | 0.915 | 0.863 | 0.747 | 0.873 | 0.847 | 0.785 | 0.789 | 0.85 | 0.832
100 µM, coculture fibroblast: HMF | 0.939 | 0.867 | 0.832 | 0.872 | 0.904 | 0.852 | 0.9784 | 0.863 | 0.947
100 µM, coculture fibroblast: HPFa | 0.891 | 0.855 | 0.775 | 0.812 | 0.851 | 0.831 | 0.876 | 0.844 | 0.958
100 µM, coculture fibroblast: HUF | 0.941 | 0.938 | 0.972 | 0.924 | 0.909 | 0.892 | 0.8587 | 0.875 | 0.8588
100 µM, coculture fibroblast: Hs5 | 0.824 | 0.771 | 0.7044 | 0.891 | 0.845 | 0.816 | 0.979 | 0.9609 | 0.983
100 µM, coculture fibroblast: Hs27A | 0.9507 | 0.838 | 0.866 | 0.779 | 0.74 | 0.796 | 0.882 | 0.864 | 0.787
100 µM, coculture fibroblast: Hs343T | 0.93 | 0.9885 | 0.917 | 0.819 | 0.883 | 0.89 | 0.878 | 0.877 | 0.901
100 µM, coculture fibroblast: WS1 | 0.948 | 0.9457 | 0.93 | 0.884 | 0.8559 | 0.8236 | 0.802 | 0.786 | 0.78

The reference is the same well before dosing, and untreated signal decays as well.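 Fibroblast labels name human fibroblasts: mostly primary ones from tissues such as uterus (C12385, HUF), lung (H6013), bone (Hs27A), adrenal (HADF) and skin (WS1), plus mammary HMF and breast cancer-associated Hs343T. The cancer cells are basal-like or mesenchymal-like triple-negative breast cancer lines. The paper calls a changed response a hit when it shifts by more than 3x the replicate standard deviation. The tissue of the other fibroblasts is not given here.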
